According to PubChem BioAssay AID2685 (National Center for Advancing Translational Sciences (NCATS), 2010):
Screen size: about 320,000 compounds; about 2,100 (0.66%) were called active. The inconclusive results got no clear call from the source; some entries with a clear call stand among them for comparison. The call rests on the fitted dose curve; in most records, active means well fitted inhibition curve with a large enough effect in the signal ratio, with a control signal flat (not every such curve was filed as active); inconclusive means small, poorly fitted or top-dose-only effect, or effect the other way, or a change in a side signal; inactive means flat fitted curve, though single readings scatter; the % refers to the signal ratio. Where the call is inconclusive, the potency comes from a doubtful curve fit.

assay: qHTS Assay for Lipid Storage Modulators in Drosophila S3 Cells; conditions: BODIPY lipid droplet fluorescence, 18-24 h, cells fed with added oleic acid; lipid storage change, negative = inhibition: at 46.1 µM (top of the series) unless noted
Summary of the method: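 Drosophila S3 cells loaded with oleic acid (400 uM, as added) and compounds at several concentrations; lipid droplets imaged by 488-nm laser-scanning cytometry, 500–530 nm intensity and object ratio to cell channel. Percent activity normalized to 20 uM Triacsin C.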
On the % scale 0 is the no-effect control and ±100 the full control effect; potency means the concentration at half of the fitted maximal effect.

Row | SMILES | Potency | lipid storage change, negative = inhibition
1 | O=C1CCC(C(=O)N2CCCO2)CN1Cc1cccc(C(F)(F)F)c1 (configuration not stated) | inconclusive: 0.58 µM [falling, single point] | 
2 | CC(NC(=O)c1ccc(NC(=O)CC2SC(N3CCCC3)=NC2=O)cc1)c1ccccc1 (configuration not stated) | inconclusive: 0.82 µM [activator, full curve, poor fit] | 
3 | CCC1CCc2sc(C(=O)NNC(=S)NCC3CCCO3)cc2C1 (configuration not stated) | inconclusive: 6.51 µM [falling, single point] | 
4 | CC(=O)Nc1ccc(NC(=O)C(=O)N/N=C/c2cccnc2)cc1 |  | inconclusive: -26.4%
5 | COc1ccc(NC(=O)CSc2nc3ccccc3nc2N2CCCCC2)cc1 |  | inactive
6 | Cc1sc2nc(CN3CCOCC3)nc(Oc3ccc(NC(=O)c4ccco4)cc3)c2c1C | inconclusive: 5.17 µM [activator, single point] | 
7 | CNCCC(=O)N1c2ccccc2CCc2ccc(NC(=O)OC)cc21 |  | inconclusive: 28.5%
8 | O=c1c2ccccc2nc(SCc2ccccc2Cl)n1Cc1ccccc1 | inconclusive: 13 µM [falling, partial curve, poor fit] | 
9 | O=C(CCc1nc2ccccc2c(=O)[nH]1)OCC(=O)c1cccc(Cl)c1 | inconclusive: 32.6 µM [activator, single point] | 
10 | N#CCc1ccc(NS(=O)(=O)c2ccc(N3CCCC3=O)cc2)cc1 | inconclusive: 29.1 µM [falling, single point] | 
11 | CCCC(C)C(=O)Nc1ccc(S(=O)(=O)Nc2nccc(C)n2)cc1 (configuration not stated) | inconclusive: 23.1 µM [falling, partial curve] | 
12 | Cc1ccc(S(=O)(=O)N2CN(Cc3ccco3)c3nc4ccccc4nc32)cc1C | inconclusive: 16.4 µM [falling, partial curve] | 
13 | O=C(NC1(C(F)(F)F)N=C(c2ccccc2)NC1=O)c1ccccc1 (configuration not stated) |  | inconclusive: -20%
14 | Cc1ccc(C(=O)c2c3ccc([N+](=O)[O-])cc3[n+]([O-])n2CCC(N)=O)cc1 |  | inconclusive: -23.8%
15 | COc1cc(C2C(C#N)=C(N)OC3=C2C(=O)CCC3)c([N+](=O)[O-])cc1OC (configuration not stated) |  | inconclusive: 48.3%
16 | CCn1nnc(NC(=O)c2ccco2)n1 |  | inconclusive: -104%
17 | CC(NC(=O)Cc1ccc(S(=O)(=O)N2CCOCC2)s1)c1ccc(Cl)c(Cl)c1 (configuration not stated) |  | inactive
18 | COCc1cc(=O)oc2cc(NS(=O)(=O)c3ccc(C)cc3)ccc12 |  | inconclusive: 25.6%
19 | CC(C)(C)OC(=O)[C@H](Cc1ccccc1)NC(=O)c1nc[nH]c1C(=O)N1CCN(C(=O)OC(C)(C)C)CC1 |  | inconclusive: -87%
20 | Cc1c(C(=O)OCC(=O)Nc2ccccc2OC(F)F)cccc1[N+](=O)[O-] | inconclusive: 11.6 µM [activator, partial curve, poor fit] | 
21 | COc1ccccc1NC(=O)c1cc(C(=O)Nc2ccccc2OC)cc(N2C(=O)CCC2=O)c1 | inconclusive: 3.26 µM [activator, partial curve, poor fit] | 
22 | CC(=O)N1CCC2(CC1)C(C#N)=C(N)OC1=C2C(=O)CC(C)(C)C1 |  | inconclusive: -19.8%
23 | Cc1cc(C)c(C)c(OCC(=O)O/N=C(\N)c2ccncc2)c1 |  | inconclusive: 9.31%
24 | Cc1cc(OCC(=O)OCC(=O)NCc2ccco2)ccc1Cl |  | inconclusive

Arranged by number of heavy atoms (low to high): some entries from above
Row | SMILES | Potency | lipid storage change, negative = inhibition
4 | CC(=O)Nc1ccc(NC(=O)C(=O)N/N=C/c2cccnc2)cc1 |  | inconclusive: -26.4%
11 | CCCC(C)C(=O)Nc1ccc(S(=O)(=O)Nc2nccc(C)n2)cc1 (configuration not stated) | inconclusive: 23.1 µM [falling, partial curve] | 
8 | O=c1c2ccccc2nc(SCc2ccccc2Cl)n1Cc1ccccc1 | inconclusive: 13 µM [falling, partial curve, poor fit] | 

Additional entries:

Row | SMILES | Potency | lipid storage change, negative = inhibition
25 | O=[N+]([O-])c1ccc2c(c1)nc(CO)n2Cc1ccccc1 |  | inconclusive: -19%
26 | COCCNC(=O)c1cc(-c2ccccn2)nc2ccc(S(=O)(=O)N3CCC(C)CC3)cc12 | inconclusive: 23.1 µM [activator, single point] | 
27 | COC(=O)c1sccc1NC(=O)C1C2C=CC(O2)C1C(=O)O (configuration not stated) | inconclusive: 1.84 µM [falling, partial curve, poor fit] | 
28 | COc1cc(C2C(C(=O)c3ccc(C)o3)=C(O)C(=O)N2c2cc(C)on2)cc(OC)c1OC (configuration not stated) |  | inconclusive: 5.18%
29 | N#Cc1ccc(C(=O)CN2CCN(c3ccccc3)CC2)cc1 |  | inconclusive: 108%
30 | CCc1cccc(C)c1NC(=O)Cc1ccsc1 |  | inconclusive: -45.9%
31 | Cc1ccc(C)c(SCC(=O)OC/C(O)=C(\C#N)c2nc3ccccc3[nH]2)c1 | inconclusive: 32.6 µM [falling, single point] | 
32 | Cc1cc2nc(N3C(=O)CNC3=S)sc2cc1C | inconclusive: 18.4 µM [falling, partial curve, poor fit] | 
33 | O=C(N/N=C1\CC(c2ccccc2)Oc2ccccc21)c1cccnc1 (configuration not stated) |  | inconclusive: 5.73%
34 | O=C(CN1CCc2ccccc2C1)Nc1ccccc1Cl |  | inconclusive: -37.1%
35 | CCOc1ncccc1C(=O)NCc1ccccc1 |  | inconclusive: 44.1%
36 | Cc1ccc(/C=N\NC(=O)CC(=O)NCCc2ccccc2)cc1 |  | inconclusive: 36.5%
37 | CCc1ccc(C2=NN(CCC(=O)NC3CCCCCC3)C(=O)CC2)cc1 |  | inconclusive: -15.4%
38 | O=C(CCC(=O)N1CCCC1)Nc1nnc(C2CCCCC2)s1 |  | inconclusive: 6.49%
39 | O=C(Nc1ccon1)c1cc2ccccc2oc1=O |  | inactive
40 | CCC(=O)Nc1nnc(S(=O)(=O)N(CC)c2cc(C)cc(C)c2)s1 | inconclusive: 13 µM [activator, partial curve] | 
41 | COc1ccc(OCCOC(=O)c2ccc(-n3cnnn3)cc2)cc1 |  | inconclusive: 0.798%
42 | O=C(Nc1cccc(S(=O)(=O)N2CCCCC2)c1)C1CC(=O)N(c2ccc3c(c2)OCCO3)C1 (configuration not stated) |  | inconclusive: -55.6%
43 | COC(=O)C(Cc1ccccc1)NC(=O)CNC(=O)c1sc2ccccc2c1Cl (configuration not stated) | active: 1.84 µM | 
44 | CCN(CC)C(=S)NC(=O)C12CC3CC(CC(C3)C1)C2 | inconclusive: 0.116 µM [cytotoxic, full curve, poor fit] | 
45 | Cc1ccccc1-c1noc(CCC(=O)NCC2CCCO2)n1 (configuration not stated) |  | inconclusive: 43.9%
46 | NC(=O)C(c1ncc(C(F)(F)F)cc1Cl)c1c(Cl)cccc1Cl (configuration not stated) |  | inconclusive: -10.6%
47 | Cc1ccccc1C1NC(=O)Cc2ccccc21 (configuration not stated) | inconclusive: 0.092 µM [rising, full curve, poor fit] | 
